{"sequences": {"note": "Protein sequences, listed by entry. Tags and fused reporters are not part of them. Lines headed by an entry give the natural chain unless they say otherwise; changes in a name come on top. Residues count along the entry.", "UniProt P10643, residues 23-843": "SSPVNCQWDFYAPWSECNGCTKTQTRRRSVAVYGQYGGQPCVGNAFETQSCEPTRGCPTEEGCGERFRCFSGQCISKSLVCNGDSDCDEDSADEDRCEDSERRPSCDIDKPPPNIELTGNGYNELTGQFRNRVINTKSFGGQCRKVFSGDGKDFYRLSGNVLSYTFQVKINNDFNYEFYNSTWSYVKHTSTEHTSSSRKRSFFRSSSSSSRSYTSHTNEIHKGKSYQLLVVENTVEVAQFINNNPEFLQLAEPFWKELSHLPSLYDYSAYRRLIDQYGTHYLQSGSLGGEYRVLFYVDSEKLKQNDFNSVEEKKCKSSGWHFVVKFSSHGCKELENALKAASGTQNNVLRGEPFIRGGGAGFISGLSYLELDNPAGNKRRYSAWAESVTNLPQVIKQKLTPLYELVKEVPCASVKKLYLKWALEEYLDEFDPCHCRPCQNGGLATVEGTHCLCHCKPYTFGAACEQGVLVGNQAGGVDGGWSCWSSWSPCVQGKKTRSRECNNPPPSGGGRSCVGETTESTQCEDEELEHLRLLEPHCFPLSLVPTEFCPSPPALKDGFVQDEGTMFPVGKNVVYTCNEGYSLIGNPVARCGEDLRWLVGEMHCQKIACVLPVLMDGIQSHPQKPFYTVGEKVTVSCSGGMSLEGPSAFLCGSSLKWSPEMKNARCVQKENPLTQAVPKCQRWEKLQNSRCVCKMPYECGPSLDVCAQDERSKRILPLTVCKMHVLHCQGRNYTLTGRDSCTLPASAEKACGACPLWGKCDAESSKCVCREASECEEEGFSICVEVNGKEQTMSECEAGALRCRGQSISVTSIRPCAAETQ", "UniProt P01031": "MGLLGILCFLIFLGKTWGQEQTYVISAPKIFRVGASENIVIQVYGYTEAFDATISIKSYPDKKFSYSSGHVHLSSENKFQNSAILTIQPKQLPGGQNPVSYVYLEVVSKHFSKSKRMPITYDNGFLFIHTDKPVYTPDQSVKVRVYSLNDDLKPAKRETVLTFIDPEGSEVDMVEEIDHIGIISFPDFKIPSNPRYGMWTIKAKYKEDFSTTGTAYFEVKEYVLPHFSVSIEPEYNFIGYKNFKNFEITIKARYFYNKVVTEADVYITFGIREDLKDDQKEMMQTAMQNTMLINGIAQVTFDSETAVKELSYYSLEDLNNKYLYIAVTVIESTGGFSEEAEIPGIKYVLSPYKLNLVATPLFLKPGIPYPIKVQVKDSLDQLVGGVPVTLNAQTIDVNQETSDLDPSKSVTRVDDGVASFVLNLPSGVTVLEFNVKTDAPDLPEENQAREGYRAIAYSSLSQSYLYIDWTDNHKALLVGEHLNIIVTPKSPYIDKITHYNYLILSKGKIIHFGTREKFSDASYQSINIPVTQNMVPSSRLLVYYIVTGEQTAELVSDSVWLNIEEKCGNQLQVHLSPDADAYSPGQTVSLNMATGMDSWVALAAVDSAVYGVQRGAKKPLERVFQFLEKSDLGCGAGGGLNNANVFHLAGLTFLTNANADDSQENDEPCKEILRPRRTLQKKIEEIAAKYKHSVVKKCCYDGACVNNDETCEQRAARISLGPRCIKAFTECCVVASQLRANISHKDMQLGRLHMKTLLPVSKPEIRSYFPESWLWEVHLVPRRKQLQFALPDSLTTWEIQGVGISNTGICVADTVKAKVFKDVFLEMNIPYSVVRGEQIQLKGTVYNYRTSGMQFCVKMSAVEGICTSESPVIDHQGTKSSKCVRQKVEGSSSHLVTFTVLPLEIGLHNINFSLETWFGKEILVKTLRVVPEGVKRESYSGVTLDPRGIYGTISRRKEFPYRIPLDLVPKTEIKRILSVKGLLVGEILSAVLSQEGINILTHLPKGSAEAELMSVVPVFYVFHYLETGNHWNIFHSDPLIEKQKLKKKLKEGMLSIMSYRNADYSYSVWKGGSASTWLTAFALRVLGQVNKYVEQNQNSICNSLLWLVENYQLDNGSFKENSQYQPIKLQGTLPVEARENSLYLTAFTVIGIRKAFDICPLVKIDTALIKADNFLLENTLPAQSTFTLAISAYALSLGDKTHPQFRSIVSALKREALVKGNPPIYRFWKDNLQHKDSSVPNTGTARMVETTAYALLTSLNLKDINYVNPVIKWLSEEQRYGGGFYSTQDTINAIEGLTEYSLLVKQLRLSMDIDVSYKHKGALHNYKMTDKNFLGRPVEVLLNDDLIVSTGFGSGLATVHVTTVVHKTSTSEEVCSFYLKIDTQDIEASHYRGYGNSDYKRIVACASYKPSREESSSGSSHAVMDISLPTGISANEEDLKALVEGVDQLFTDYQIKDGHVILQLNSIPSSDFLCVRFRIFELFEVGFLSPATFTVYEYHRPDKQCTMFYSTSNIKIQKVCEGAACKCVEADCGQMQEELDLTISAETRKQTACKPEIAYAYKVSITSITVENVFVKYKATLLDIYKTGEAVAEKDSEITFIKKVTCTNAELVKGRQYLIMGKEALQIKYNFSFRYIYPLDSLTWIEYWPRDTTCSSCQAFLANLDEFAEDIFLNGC"}, "source": "patent US20140056878A1", "target": "Complement protein C7 (UniProt P10643)", "experiment": "BIACORE blocking assay: C5-C345C mixed with 100 nM C5b6, then flowed over C7 captured by an anti-C7 antibody; competitor C5b6", "note": "These are yes or no findings as the source states them, for the method shown. Some results given as binding are weak or reduced against the parent protein; the word gives no strength.", "data": [{"substance": "C5-C345C (from UniProt P01031 1530-1676)", "values": [{"measurement": "binding", "value": "binds"}]}]}
